Results taken from the supplement of paper PMC10849652.
Some of the results follow.

Chains of the proteins cited; added tags and fusions are not shown. Lines headed by an entry give the natural chain unless they say otherwise; changes in a name come on top.
UniProt Q9NWZ3, whole entry, looked up: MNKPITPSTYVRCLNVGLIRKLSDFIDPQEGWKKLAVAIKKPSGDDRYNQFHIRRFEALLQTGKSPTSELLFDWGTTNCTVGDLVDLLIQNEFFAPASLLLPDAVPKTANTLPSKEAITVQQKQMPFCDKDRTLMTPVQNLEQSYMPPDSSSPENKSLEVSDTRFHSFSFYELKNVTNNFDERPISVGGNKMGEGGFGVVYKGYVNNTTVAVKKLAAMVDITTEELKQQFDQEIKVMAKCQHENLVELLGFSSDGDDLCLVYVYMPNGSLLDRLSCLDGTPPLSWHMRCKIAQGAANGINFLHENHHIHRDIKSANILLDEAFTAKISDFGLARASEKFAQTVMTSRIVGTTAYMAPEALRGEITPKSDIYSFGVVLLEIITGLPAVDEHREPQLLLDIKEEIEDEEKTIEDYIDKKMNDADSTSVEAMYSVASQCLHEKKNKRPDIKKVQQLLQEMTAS
UniProt Q9UI26: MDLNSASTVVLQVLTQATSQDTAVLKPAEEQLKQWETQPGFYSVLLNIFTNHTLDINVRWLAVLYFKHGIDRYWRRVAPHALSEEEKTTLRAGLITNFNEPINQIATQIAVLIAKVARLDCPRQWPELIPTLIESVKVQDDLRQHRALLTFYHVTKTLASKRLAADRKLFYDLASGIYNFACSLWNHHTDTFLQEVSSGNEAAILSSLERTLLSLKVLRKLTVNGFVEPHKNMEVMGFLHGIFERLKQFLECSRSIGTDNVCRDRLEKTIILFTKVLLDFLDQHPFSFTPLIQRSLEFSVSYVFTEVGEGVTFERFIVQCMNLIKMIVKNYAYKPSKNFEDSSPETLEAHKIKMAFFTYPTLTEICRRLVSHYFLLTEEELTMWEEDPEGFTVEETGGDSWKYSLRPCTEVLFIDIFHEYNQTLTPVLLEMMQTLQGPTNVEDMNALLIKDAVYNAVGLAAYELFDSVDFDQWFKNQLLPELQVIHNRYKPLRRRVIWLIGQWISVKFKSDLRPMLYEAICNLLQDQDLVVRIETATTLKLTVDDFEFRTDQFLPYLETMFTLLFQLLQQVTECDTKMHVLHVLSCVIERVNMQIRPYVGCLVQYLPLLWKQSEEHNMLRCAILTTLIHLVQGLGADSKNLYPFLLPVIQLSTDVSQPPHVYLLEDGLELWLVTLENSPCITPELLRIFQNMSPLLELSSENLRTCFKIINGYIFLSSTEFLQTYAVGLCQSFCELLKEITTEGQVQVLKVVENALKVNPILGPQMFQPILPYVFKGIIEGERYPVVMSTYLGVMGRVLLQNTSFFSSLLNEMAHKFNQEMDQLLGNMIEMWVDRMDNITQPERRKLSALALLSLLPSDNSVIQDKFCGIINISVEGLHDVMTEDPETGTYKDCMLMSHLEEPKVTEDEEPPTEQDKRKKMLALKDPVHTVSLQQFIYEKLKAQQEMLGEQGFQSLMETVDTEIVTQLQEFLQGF
UniProt P51553: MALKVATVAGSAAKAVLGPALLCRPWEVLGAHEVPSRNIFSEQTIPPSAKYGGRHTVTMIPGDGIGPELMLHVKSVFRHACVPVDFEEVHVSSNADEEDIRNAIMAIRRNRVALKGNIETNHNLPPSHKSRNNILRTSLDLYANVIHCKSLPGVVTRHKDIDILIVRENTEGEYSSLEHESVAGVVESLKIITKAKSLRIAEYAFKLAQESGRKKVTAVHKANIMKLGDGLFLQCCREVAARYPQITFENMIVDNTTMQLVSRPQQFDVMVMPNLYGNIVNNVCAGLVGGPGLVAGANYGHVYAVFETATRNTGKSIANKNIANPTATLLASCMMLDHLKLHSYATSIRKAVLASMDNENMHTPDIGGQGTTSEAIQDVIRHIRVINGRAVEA
UniProt Q8TB96: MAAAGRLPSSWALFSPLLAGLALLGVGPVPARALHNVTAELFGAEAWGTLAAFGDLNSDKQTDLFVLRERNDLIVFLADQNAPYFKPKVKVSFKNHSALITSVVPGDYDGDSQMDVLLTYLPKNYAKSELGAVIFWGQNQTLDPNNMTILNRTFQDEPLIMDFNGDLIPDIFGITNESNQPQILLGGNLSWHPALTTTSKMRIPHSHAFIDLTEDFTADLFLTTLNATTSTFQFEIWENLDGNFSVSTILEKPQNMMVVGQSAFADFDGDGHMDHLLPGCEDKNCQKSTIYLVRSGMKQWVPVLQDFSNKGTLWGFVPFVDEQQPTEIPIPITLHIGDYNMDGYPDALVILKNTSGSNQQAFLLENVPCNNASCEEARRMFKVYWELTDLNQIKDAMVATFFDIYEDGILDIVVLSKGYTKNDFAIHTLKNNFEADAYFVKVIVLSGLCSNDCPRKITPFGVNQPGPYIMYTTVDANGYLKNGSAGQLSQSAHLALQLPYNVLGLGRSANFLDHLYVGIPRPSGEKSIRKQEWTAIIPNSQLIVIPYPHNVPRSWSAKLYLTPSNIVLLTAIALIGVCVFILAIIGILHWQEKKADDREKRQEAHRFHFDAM
UniProt Q9NPH2: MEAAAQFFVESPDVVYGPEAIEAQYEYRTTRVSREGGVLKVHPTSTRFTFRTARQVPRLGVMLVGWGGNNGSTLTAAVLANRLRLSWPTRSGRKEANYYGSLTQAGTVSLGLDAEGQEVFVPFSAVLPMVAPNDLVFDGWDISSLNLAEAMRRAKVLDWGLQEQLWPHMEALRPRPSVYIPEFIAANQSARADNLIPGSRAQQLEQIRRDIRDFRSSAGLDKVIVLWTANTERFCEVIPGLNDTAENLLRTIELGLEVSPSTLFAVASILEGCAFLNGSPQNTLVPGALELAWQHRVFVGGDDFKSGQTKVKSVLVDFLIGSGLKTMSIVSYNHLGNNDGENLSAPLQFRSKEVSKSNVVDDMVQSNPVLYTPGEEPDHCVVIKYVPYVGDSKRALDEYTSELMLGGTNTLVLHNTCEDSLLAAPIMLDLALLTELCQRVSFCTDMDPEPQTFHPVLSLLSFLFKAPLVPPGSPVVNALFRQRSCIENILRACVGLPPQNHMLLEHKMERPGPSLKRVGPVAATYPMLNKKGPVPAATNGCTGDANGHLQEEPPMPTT
UniProt Q14624: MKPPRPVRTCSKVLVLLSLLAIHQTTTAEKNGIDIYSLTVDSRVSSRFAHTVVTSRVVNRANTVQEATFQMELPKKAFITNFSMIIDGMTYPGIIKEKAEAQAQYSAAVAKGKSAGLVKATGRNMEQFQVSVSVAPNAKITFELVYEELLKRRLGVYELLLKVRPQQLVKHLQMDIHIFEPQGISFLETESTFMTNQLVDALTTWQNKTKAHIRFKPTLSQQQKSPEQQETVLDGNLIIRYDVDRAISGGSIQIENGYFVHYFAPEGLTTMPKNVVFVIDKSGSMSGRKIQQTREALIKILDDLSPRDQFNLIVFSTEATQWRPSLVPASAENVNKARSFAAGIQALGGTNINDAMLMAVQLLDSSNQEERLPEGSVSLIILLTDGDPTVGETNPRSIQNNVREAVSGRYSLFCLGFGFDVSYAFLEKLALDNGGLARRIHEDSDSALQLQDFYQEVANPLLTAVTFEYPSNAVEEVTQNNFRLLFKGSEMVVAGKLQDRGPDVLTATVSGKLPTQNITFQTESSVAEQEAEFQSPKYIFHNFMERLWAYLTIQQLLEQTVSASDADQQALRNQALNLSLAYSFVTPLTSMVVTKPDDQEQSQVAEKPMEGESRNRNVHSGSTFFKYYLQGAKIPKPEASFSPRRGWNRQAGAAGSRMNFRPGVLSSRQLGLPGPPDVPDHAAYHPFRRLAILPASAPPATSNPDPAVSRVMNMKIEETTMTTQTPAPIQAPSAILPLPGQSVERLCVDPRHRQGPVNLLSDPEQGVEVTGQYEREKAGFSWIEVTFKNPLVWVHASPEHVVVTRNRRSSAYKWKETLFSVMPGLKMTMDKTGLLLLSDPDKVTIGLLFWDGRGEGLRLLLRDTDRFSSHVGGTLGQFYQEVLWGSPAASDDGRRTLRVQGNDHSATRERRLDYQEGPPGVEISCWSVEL
UniProt P11717, whole entry, looked up: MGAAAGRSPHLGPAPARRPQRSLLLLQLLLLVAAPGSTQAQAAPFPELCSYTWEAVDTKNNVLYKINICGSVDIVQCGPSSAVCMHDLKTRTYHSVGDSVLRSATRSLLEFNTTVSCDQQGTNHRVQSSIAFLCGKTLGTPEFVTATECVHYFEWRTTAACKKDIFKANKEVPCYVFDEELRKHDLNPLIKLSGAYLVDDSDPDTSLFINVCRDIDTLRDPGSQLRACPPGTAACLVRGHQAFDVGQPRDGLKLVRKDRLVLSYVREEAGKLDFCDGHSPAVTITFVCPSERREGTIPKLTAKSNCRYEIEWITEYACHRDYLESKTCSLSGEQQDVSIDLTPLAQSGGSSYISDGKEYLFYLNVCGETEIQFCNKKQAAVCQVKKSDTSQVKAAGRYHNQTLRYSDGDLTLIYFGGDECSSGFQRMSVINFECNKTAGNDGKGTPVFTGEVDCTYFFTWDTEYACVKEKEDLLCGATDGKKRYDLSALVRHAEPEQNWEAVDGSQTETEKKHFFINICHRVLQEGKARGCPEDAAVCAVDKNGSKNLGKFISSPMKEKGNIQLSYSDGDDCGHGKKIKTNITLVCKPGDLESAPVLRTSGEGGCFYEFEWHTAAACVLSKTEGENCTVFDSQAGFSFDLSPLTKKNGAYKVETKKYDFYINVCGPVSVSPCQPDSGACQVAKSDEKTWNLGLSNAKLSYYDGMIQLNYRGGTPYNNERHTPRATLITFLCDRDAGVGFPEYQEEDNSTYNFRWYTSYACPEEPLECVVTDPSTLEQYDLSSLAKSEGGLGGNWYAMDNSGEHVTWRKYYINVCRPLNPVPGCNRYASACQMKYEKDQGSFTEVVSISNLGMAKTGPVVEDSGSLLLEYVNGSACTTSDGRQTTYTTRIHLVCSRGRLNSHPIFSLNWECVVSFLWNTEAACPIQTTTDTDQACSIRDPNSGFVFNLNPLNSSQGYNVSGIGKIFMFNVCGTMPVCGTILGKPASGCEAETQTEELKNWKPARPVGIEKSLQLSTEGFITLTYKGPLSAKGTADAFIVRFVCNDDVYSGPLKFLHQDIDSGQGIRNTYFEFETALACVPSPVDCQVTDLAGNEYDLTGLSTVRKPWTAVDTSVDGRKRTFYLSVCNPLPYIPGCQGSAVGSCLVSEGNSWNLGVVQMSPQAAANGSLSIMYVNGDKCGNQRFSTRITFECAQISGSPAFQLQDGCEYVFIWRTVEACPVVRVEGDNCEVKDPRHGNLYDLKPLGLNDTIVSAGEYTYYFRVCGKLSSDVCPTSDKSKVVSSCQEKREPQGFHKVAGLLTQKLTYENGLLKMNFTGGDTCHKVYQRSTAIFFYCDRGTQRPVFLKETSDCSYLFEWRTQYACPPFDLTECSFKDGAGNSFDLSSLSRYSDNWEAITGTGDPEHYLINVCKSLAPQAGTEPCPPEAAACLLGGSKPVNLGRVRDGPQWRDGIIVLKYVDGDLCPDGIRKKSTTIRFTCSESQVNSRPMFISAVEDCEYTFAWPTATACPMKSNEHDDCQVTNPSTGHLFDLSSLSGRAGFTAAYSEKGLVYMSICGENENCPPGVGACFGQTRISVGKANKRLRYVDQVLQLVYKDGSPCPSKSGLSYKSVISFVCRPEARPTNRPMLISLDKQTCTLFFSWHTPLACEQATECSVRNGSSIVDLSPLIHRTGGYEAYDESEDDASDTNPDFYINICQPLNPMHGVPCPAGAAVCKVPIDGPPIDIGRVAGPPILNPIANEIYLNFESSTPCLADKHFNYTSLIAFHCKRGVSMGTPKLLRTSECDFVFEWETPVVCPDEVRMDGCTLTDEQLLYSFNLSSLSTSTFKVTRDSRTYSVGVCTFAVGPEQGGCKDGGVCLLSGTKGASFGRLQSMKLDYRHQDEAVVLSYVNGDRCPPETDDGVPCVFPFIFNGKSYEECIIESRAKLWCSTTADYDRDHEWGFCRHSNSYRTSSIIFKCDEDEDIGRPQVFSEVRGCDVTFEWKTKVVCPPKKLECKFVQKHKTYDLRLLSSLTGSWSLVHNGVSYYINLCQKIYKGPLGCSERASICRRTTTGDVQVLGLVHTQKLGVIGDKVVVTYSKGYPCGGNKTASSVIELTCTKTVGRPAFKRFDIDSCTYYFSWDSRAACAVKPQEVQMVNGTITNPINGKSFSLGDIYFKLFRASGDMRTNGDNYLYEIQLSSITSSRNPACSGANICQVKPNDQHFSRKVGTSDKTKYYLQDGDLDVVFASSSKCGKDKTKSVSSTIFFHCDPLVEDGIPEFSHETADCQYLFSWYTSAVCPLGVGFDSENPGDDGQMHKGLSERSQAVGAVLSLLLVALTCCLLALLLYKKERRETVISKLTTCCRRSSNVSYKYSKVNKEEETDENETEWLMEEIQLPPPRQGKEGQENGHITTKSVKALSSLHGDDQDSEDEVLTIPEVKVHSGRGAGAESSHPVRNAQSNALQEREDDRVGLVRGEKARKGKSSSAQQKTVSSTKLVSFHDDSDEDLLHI

Experiments:
Assay in all cases: log2 fold change, soluble protein after heating vs DMSO (PISA); higher = thermal stabilisation; K562 cells, 10 uM, 30 min; active = over 0.2 and 3.5 SD of the protein, either way, in both replicates (recomputed)
[1] = compound: COC1=CC=C(C=C1)CN2C=CC3=C2C=C(C=C3)C(=O)NO
In short: (§1)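 K562 cells at 2×10^6 cells/mL were treated for 30 min with 10 μM compound, and aliquots were heated for 3 min over 48°C-58°C before pooling. Extraction used PBS with 0.5% NP-40 at 4°C, and soluble protein was the supernatant after 21,000xg for 90 min, measured by TMTpro 16plex LC-MS/MS with channel sums equalised. Thermal stability values, relative to control samples and from duplicates, are log2 fold changes.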

filanesib = compound: CON(C)C(=O)N1N=C(c2cc(F)ccc2F)S[C@@]1(CCCN)c1ccccc1 [filanesib]
In short: as §1

zotarolimus = compound: CO[C@H]1C[C@@H]2CC[C@@H](C)[C@@](O)(O2)C(=O)C(=O)N2CCCC[C@H]2C(=O)O[C@H]([C@H](C)C[C@@H]2CC[C@H](n3cnnn3)[C@H](OC)C2)CC(=O)[C@H](C)/C=C(\C)[C@@H](O)[C@@H](OC)C(=O)[C@H](C)C[C@H](C)/C=C/C=C/C=C/1C [zotarolimus]
In short: as §1

idasanutlin = compound: COc1cc(C(=O)O)ccc1NC(=O)[C@@H]1N[C@@H](CC(C)(C)C)[C@](C#N)(c2ccc(Cl)cc2F)[C@H]1c1cccc(Cl)c1F [idasanutlin]
In short: as §1

alisertib = compound: COc1cc(Nc2ncc3c(n2)-c2ccc(Cl)cc2C(c2c(F)cccc2OC)=NC3)ccc1C(=O)O [alisertib]
In short: as §1

[2] = compound: COc1cc2nc(-c3cc(F)ccc3O)nc(N[C@@H]3CNC[C@H]3C(C)(C)O)c2cc1OC
In short: as §1

gefitinib = compound: COc1cc2ncnc(Nc3ccc(F)c(Cl)c3)c2cc1OCCCN1CCOCC1 [gefitinib]
In short: as §1

[3] = compound: COc1cccc2cc(-c3nc([C@H]4CC[C@H](C(=O)O)CC4)n4ncnc(N)c34)[nH]c12
In short: as §1

lapatinib = compound: CS(=O)(=O)CCNCc1ccc(-c2ccc3ncnc(Nc4ccc(OCc5cccc(F)c5)c(Cl)c4)c3c2)o1 [lapatinib]
In short: as §1

pictilisib = compound: CS(=O)(=O)N1CCN(Cc2cc3nc(-c4cccc5[nH]ncc45)nc(N4CCOCC4)c3s2)CC1 [pictilisib]
In short: as §1

[4] = compound: CS(=O)(=O)c1ccc(-c2cnc(N)c(C(=O)Nc3ccccc3)n2)cc1
In short: as §1

crizotinib = compound: C[C@@H](Oc1cc(-c2cnn(C3CCNCC3)c2)cnc1N)c1c(Cl)ccc(F)c1Cl [crizotinib]
In short: as §1

[5] = compound: C[C@@H]1COCCN1C2=NC(=NC(=C2)C3(CC3)S(=O)(=O)C)C4=C5C=CNC5=CC=C4
In short: as §1

[6] = compound: C[C@H](C1=CC=C(C=C1)C(=O)NC2=C3C=CNC3=NC=C2)N
In short: as §1

duvelisib = compound: C[C@H](Nc1ncnc2nc[nH]c12)c1cc2cccc(Cl)c2c(=O)n1-c1ccccc1 [duvelisib]
In short: as §1

gandotinib = compound: Cc1cc(Nc2cc(CN3CCOCC3)c3nc(C)c(Cc4ccc(Cl)cc4F)n3n2)n[nH]1 [gandotinib]
In short: as §1

tozasertib = compound: Cc1cc(Nc2cc(N3CCN(C)CC3)nc(Sc3ccc(NC(=O)C4CC4)cc3)n2)n[nH]1 [tozasertib]
In short: as §1

[7] = compound: Cc1cc(SCc2sc(-c3ccc(C(F)(F)F)cc3)nc2C)ccc1OCC(=O)O
In short: as §1

doramapimod = compound: Cc1ccc(-n2nc(C(C)(C)C)cc2NC(=O)Nc2ccc(OCCN3CCOCC3)c3ccccc23)cc1 [doramapimod]
In short: as §1

ispinesib = compound: Cc1ccc(C(=O)N(CCCN)[C@@H](c2nc3cc(Cl)ccc3c(=O)n2Cc2ccccc2)C(C)C)cc1 [ispinesib]
In short: as §1

Measured: log2 fold change

IDH1 (UniProt O75874)
inactive: [1] 0.026 | filanesib -0.06 | zotarolimus -0.031 | idasanutlin -0.026 | alisertib -0.008 | [2] 0.028 | gefitinib -0.003 | [3] 0.055 | lapatinib -0.037 | pictilisib 0.017 | [4] -0.016 | crizotinib 0.003 | [5] 0.013 | [6] -0.071 | duvelisib 0.02 | gandotinib -0.007 | tozasertib -0.043 | [7] -0.027 | doramapimod -0.028 | ispinesib 0.027

ILF2 (UniProt Q12905)
inactive: [1] 0.086 | filanesib 0.101 | zotarolimus -0.024 | idasanutlin 0.084 | alisertib -0.146 | [2] 0.068 | gefitinib -0.045 | [3] -0.08 | lapatinib 0.101 | pictilisib -0.035 | [4] -0.168 | crizotinib -0.164 | [5] -0.153 | [6] 0.206 | gandotinib 0.07 | [7] 0.022 | doramapimod 0.063 | ispinesib 0.038

IGF2BP3 (UniProt O00425)
inactive: [1] -0.056 | filanesib 0.452 | zotarolimus 0.056 | idasanutlin 0.209 | alisertib -0.134 | [2] -0.347 | gefitinib -0.005 | [3] -0.246 | lapatinib 0.234 | pictilisib -0.032 | [4] 0.003 | crizotinib -0.082 | [5] -0.413 | [6] 0.41 | duvelisib -0.103 | gandotinib 0.129 | tozasertib 0.108 | [7] 0.155 | doramapimod 0.239 | ispinesib -0.298

IQGAP1 (UniProt P46940)
inactive: [1] 0.036 | filanesib -0.05 | zotarolimus 0.021 | idasanutlin -0.045 | alisertib -0.004 | [2] 0.095 | gefitinib 0.008 | [3] -0.031 | lapatinib -0.054 | pictilisib -0.06 | [4] 0.001 | crizotinib -0.098 | [5] 0.012 | [6] -0.064 | duvelisib 0.005 | gandotinib -0.131 | tozasertib -0.058 | [7] 0.082 | doramapimod -0.034 | ispinesib 0

IPO13 (UniProt O94829)
inactive: [1] -0.017 | filanesib -0.144 | zotarolimus -0.039 | idasanutlin -0.038 | alisertib 0.021 | [2] -0.024 | gefitinib -0.047 | [3] 0.008 | lapatinib 0.038 | pictilisib 0.109 | [4] -0.042 | crizotinib -0.134 | [5] 0.016 | [6] -0.028 | gandotinib -0.234 | [7] 0.01 | doramapimod 0.023 | ispinesib -0.13

ITM2A (UniProt O43736)
inactive: [1] -0.006 | filanesib 0.143 | zotarolimus 0.043 | idasanutlin -0.004 | alisertib -0.076 | [2] 0.104 | gefitinib -0.002 | [3] -0.193 | lapatinib 0.063 | pictilisib 0.091 | [4] 0.033 | crizotinib -0.019 | [5] -0.11 | [6] 0.11 | duvelisib 0.069 | gandotinib 0.071 | tozasertib 0.025 | [7] -0.034 | doramapimod 0.03 | ispinesib 0.069

IRAK4 (UniProt Q9NWZ3)
inactive: [1] 0.012 | filanesib -0.028 | zotarolimus 0.01 | idasanutlin 0.004 | alisertib -0.059 | [2] 0.104 | gefitinib 0.109 | [3] 0.007 | lapatinib -0.004 | pictilisib -0.099 | [4] 0.034 | crizotinib -0.025 | [5] 0.003 | [6] 0.046 | gandotinib -0.107 | [7] 0.104 | doramapimod -0.047 | ispinesib -0.05

ITCH (UniProt Q96J02)
inactive: [1] -0.015 | filanesib 0.09 | zotarolimus -0.001 | idasanutlin -0.111 | alisertib -0.006 | [2] 0.049 | gefitinib 0.015 | [3] -0.021 | lapatinib 0.059 | pictilisib -0.049 | [4] 0.023 | crizotinib -0.154 | [5] 0.025 | [6] 0.046 | duvelisib 0.016 | gandotinib -0.131 | tozasertib -0.023 | [7] -0.021 | doramapimod 0.045 | ispinesib -0.092

IPO11 isoform 2 (UniProt Q9UI26)
inactive: [1] 0.036 | filanesib -0.045 | zotarolimus 0.002 | idasanutlin -0.087 | alisertib -0.023 | [2] -0.006 | gefitinib -0.049 | [3] 0.04 | lapatinib 0.005 | pictilisib 0.028 | [4] 0.037 | crizotinib 0 | [5] -0.015 | [6] -0.082 | gandotinib -0.076 | [7] 0.007 | doramapimod -0.028 | ispinesib 0.051

IDH3G (UniProt P51553)
inactive: [1] -0.032 | filanesib -0.045 | zotarolimus -0.004 | idasanutlin -0.058 | alisertib -0.129 | [2] 0.003 | gefitinib 0.031 | [3] 0.064 | lapatinib 0.004 | pictilisib 0.027 | [4] 0.027 | crizotinib 0.032 | [5] 0.07 | [6] -0.034 | duvelisib 0.069 | gandotinib -0.043 | tozasertib -0.016 | [7] -0.003 | doramapimod -0.033 | ispinesib 0.094

ITPA (UniProt Q9BY32)
inactive: [1] 0.003 | filanesib -0.048 | zotarolimus 0.007 | idasanutlin -0.034 | alisertib -0.019 | [2] 0 | gefitinib 0.003 | [3] 0.056 | lapatinib 0.021 | pictilisib 0.077 | [4] 0.045 | crizotinib 0.041 | [5] 0.026 | [6] -0.008 | duvelisib 0.107 | gandotinib -0.025 | tozasertib -0.044 | [7] 0.042 | doramapimod -0.06 | ispinesib 0.099

ITFG1 (UniProt Q8TB96)
inactive: [1] -0.08 | filanesib 0.001 | zotarolimus 0.02 | idasanutlin 0.052 | alisertib -0.173 | [2] -0.021 | gefitinib 0 | [3] -0.034 | lapatinib 0.011 | pictilisib 0.053 | [4] 0.008 | crizotinib 0.021 | [5] 0.042 | [6] 0.005 | duvelisib 0.106 | gandotinib 0.03 | tozasertib 0.117 | [7] -0.008 | doramapimod -0.004 | ispinesib 0.004

ILKAP (UniProt Q9H0C8)
inactive: [1] 0 | filanesib -0.016 | zotarolimus 0.03 | idasanutlin -0.06 | alisertib -0.13 | [2] 0.113 | gefitinib 0.032 | [3] -0.056 | lapatinib -0.029 | pictilisib -0.035 | [4] 0.008 | crizotinib 0.064 | [5] 0.174 | [6] -0.054 | gandotinib -0.061 | [7] 0.085 | doramapimod -0.055 | ispinesib 0.05

ISYNA1 (UniProt Q9NPH2)
inactive: [1] -0.008 | filanesib -0.075 | zotarolimus -0.024 | idasanutlin -0.018 | alisertib 0.04 | [2] 0.018 | gefitinib 0.024 | [3] -0.066 | lapatinib -0.017 | pictilisib 0.034 | [4] -0.008 | crizotinib 0 | [5] 0.043 | [6] -0.091 | duvelisib 0.047 | gandotinib -0.027 | tozasertib -0.05 | [7] -0.037 | doramapimod -0.044 | ispinesib 0.02

ITIH4 (UniProt Q14624)
active: zotarolimus -0.896
inactive: [1] 0.252 | filanesib -0.174 | idasanutlin 0.184 | alisertib -0.047 | [2] -0.146 | gefitinib -0.093 | [3] 0.277 | lapatinib -0.034 | pictilisib -0.241 | [4] -0.107 | crizotinib -0.102 | [5] 0.129 | [6] -0.005 | gandotinib -0.387 | [7] -0.031 | doramapimod -0.291 | ispinesib -0.402

IKZF1 (UniProt Q13422)
inactive: [1] -0.045 | filanesib -0.136 | zotarolimus 0.004 | idasanutlin 0.037 | alisertib -0.019 | [2] 0.01 | gefitinib 0.128 | [3] 0.039 | lapatinib -0.041 | pictilisib 0.026 | [4] -0.065 | crizotinib -0.048 | [5] 0.008 | [6] -0.069 | gandotinib -0.038 | [7] 0.039 | doramapimod -0.016 | ispinesib -0.186

IGF2R (UniProt P11717)
active: crizotinib -0.871
inactive: [1] 0.041 | filanesib 0.007 | zotarolimus -0.014 | idasanutlin -0.012 | alisertib -0.058 | [2] -0.065 | gefitinib -0.003 | [3] 0 | lapatinib 0.015 | pictilisib 0.002 | [4] 0.031 | [5] -0.035 | [6] -0.035 | gandotinib 0.017 | [7] 0.019 | doramapimod -0.01 | ispinesib -0.115

Quoted from the entries so far (4 entries):
ISYNA1 (UniProt Q9NPH2)
inactive: [1] -0.008 | filanesib -0.075 | zotarolimus -0.024 | idasanutlin -0.018 | alisertib 0.04 | [2] 0.018 | gefitinib 0.024 | [3] -0.066 | lapatinib -0.017 | pictilisib 0.034 | [4] -0.008 | crizotinib 0 | [5] 0.043 | [6] -0.091 | duvelisib 0.047 | gandotinib -0.027 | tozasertib -0.05 | [7] -0.037 | doramapimod -0.044 | ispinesib 0.02

ITIH4 (UniProt Q14624)
active: zotarolimus -0.896
inactive: [1] 0.252 | filanesib -0.174 | idasanutlin 0.184 | alisertib -0.047 | [2] -0.146 | gefitinib -0.093 | [3] 0.277 | lapatinib -0.034 | pictilisib -0.241 | [4] -0.107 | crizotinib -0.102 | [5] 0.129 | [6] -0.005 | gandotinib -0.387 | [7] -0.031 | doramapimod -0.291 | ispinesib -0.402

IKZF1 (UniProt Q13422)
inactive: [1] -0.045 | filanesib -0.136 | zotarolimus 0.004 | idasanutlin 0.037 | alisertib -0.019 | [2] 0.01 | gefitinib 0.128 | [3] 0.039 | lapatinib -0.041 | pictilisib 0.026 | [4] -0.065 | crizotinib -0.048 | [5] 0.008 | [6] -0.069 | gandotinib -0.038 | [7] 0.039 | doramapimod -0.016 | ispinesib -0.186

IGF2R (UniProt P11717)
active: crizotinib -0.871
inactive: [1] 0.041 | filanesib 0.007 | zotarolimus -0.014 | idasanutlin -0.012 | alisertib -0.058 | [2] -0.065 | gefitinib -0.003 | [3] 0 | lapatinib 0.015 | pictilisib 0.002 | [4] 0.031 | [5] -0.035 | [6] -0.035 | gandotinib 0.017 | [7] 0.019 | doramapimod -0.01 | ispinesib -0.115
